{
  "sequences": {"note": "Chains of the proteins cited; added tags and fusions are not shown. Lines headed by an entry give the natural chain unless they say otherwise; changes in a name come on top.", "UniProt Q9Y3I0": "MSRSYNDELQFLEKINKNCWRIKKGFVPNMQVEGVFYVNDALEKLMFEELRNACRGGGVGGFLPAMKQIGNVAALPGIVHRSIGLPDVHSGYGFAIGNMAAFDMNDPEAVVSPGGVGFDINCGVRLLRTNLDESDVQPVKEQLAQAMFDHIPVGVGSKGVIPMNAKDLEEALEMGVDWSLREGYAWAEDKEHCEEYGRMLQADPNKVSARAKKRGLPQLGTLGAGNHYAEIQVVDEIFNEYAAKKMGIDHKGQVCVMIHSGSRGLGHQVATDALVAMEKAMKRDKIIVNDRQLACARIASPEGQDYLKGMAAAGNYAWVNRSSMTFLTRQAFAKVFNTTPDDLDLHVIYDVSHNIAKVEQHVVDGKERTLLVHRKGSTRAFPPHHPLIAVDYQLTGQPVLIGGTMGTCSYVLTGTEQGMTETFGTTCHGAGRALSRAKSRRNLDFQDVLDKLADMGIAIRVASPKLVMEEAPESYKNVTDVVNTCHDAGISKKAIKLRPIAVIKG", "UniProt P23443": "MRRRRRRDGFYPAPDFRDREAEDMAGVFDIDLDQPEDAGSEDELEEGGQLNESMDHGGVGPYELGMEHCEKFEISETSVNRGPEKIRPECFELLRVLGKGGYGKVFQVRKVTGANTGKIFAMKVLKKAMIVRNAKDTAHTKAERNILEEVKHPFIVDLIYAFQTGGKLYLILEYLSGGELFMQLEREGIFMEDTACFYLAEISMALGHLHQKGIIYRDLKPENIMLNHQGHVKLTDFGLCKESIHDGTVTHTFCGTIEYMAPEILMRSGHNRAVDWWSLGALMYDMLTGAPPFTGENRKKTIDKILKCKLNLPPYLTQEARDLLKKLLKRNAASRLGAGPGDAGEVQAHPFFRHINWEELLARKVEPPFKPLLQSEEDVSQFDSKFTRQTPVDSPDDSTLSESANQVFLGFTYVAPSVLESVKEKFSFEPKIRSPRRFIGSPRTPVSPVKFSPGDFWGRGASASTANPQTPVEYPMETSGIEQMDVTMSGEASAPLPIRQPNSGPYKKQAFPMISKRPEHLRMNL", "UniProt O75582, whole entry, looked up": "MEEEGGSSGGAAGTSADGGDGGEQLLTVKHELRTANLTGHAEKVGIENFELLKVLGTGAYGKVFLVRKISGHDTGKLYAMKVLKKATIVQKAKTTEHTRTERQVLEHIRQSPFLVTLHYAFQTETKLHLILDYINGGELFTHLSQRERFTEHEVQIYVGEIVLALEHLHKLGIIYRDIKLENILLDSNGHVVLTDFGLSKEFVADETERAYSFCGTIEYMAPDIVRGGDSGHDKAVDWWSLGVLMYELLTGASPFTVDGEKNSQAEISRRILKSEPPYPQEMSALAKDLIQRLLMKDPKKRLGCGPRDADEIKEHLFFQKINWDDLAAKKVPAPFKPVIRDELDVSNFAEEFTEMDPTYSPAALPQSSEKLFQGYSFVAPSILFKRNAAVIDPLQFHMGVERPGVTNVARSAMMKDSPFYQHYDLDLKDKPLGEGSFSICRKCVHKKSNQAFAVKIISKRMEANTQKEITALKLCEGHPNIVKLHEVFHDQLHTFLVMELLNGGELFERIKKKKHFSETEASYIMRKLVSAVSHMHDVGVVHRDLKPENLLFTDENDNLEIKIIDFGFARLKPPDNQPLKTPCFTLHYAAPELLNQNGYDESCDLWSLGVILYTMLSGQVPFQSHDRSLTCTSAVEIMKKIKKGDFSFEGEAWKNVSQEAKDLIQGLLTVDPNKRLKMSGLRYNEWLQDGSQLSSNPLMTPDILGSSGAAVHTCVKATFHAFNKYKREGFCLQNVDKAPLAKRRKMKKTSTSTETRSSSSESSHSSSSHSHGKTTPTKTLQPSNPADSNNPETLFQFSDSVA", "UniProt P26447": "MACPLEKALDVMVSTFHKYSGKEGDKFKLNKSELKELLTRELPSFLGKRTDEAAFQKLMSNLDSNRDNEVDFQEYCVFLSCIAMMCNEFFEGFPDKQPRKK", "UniProt Q9NZJ4": "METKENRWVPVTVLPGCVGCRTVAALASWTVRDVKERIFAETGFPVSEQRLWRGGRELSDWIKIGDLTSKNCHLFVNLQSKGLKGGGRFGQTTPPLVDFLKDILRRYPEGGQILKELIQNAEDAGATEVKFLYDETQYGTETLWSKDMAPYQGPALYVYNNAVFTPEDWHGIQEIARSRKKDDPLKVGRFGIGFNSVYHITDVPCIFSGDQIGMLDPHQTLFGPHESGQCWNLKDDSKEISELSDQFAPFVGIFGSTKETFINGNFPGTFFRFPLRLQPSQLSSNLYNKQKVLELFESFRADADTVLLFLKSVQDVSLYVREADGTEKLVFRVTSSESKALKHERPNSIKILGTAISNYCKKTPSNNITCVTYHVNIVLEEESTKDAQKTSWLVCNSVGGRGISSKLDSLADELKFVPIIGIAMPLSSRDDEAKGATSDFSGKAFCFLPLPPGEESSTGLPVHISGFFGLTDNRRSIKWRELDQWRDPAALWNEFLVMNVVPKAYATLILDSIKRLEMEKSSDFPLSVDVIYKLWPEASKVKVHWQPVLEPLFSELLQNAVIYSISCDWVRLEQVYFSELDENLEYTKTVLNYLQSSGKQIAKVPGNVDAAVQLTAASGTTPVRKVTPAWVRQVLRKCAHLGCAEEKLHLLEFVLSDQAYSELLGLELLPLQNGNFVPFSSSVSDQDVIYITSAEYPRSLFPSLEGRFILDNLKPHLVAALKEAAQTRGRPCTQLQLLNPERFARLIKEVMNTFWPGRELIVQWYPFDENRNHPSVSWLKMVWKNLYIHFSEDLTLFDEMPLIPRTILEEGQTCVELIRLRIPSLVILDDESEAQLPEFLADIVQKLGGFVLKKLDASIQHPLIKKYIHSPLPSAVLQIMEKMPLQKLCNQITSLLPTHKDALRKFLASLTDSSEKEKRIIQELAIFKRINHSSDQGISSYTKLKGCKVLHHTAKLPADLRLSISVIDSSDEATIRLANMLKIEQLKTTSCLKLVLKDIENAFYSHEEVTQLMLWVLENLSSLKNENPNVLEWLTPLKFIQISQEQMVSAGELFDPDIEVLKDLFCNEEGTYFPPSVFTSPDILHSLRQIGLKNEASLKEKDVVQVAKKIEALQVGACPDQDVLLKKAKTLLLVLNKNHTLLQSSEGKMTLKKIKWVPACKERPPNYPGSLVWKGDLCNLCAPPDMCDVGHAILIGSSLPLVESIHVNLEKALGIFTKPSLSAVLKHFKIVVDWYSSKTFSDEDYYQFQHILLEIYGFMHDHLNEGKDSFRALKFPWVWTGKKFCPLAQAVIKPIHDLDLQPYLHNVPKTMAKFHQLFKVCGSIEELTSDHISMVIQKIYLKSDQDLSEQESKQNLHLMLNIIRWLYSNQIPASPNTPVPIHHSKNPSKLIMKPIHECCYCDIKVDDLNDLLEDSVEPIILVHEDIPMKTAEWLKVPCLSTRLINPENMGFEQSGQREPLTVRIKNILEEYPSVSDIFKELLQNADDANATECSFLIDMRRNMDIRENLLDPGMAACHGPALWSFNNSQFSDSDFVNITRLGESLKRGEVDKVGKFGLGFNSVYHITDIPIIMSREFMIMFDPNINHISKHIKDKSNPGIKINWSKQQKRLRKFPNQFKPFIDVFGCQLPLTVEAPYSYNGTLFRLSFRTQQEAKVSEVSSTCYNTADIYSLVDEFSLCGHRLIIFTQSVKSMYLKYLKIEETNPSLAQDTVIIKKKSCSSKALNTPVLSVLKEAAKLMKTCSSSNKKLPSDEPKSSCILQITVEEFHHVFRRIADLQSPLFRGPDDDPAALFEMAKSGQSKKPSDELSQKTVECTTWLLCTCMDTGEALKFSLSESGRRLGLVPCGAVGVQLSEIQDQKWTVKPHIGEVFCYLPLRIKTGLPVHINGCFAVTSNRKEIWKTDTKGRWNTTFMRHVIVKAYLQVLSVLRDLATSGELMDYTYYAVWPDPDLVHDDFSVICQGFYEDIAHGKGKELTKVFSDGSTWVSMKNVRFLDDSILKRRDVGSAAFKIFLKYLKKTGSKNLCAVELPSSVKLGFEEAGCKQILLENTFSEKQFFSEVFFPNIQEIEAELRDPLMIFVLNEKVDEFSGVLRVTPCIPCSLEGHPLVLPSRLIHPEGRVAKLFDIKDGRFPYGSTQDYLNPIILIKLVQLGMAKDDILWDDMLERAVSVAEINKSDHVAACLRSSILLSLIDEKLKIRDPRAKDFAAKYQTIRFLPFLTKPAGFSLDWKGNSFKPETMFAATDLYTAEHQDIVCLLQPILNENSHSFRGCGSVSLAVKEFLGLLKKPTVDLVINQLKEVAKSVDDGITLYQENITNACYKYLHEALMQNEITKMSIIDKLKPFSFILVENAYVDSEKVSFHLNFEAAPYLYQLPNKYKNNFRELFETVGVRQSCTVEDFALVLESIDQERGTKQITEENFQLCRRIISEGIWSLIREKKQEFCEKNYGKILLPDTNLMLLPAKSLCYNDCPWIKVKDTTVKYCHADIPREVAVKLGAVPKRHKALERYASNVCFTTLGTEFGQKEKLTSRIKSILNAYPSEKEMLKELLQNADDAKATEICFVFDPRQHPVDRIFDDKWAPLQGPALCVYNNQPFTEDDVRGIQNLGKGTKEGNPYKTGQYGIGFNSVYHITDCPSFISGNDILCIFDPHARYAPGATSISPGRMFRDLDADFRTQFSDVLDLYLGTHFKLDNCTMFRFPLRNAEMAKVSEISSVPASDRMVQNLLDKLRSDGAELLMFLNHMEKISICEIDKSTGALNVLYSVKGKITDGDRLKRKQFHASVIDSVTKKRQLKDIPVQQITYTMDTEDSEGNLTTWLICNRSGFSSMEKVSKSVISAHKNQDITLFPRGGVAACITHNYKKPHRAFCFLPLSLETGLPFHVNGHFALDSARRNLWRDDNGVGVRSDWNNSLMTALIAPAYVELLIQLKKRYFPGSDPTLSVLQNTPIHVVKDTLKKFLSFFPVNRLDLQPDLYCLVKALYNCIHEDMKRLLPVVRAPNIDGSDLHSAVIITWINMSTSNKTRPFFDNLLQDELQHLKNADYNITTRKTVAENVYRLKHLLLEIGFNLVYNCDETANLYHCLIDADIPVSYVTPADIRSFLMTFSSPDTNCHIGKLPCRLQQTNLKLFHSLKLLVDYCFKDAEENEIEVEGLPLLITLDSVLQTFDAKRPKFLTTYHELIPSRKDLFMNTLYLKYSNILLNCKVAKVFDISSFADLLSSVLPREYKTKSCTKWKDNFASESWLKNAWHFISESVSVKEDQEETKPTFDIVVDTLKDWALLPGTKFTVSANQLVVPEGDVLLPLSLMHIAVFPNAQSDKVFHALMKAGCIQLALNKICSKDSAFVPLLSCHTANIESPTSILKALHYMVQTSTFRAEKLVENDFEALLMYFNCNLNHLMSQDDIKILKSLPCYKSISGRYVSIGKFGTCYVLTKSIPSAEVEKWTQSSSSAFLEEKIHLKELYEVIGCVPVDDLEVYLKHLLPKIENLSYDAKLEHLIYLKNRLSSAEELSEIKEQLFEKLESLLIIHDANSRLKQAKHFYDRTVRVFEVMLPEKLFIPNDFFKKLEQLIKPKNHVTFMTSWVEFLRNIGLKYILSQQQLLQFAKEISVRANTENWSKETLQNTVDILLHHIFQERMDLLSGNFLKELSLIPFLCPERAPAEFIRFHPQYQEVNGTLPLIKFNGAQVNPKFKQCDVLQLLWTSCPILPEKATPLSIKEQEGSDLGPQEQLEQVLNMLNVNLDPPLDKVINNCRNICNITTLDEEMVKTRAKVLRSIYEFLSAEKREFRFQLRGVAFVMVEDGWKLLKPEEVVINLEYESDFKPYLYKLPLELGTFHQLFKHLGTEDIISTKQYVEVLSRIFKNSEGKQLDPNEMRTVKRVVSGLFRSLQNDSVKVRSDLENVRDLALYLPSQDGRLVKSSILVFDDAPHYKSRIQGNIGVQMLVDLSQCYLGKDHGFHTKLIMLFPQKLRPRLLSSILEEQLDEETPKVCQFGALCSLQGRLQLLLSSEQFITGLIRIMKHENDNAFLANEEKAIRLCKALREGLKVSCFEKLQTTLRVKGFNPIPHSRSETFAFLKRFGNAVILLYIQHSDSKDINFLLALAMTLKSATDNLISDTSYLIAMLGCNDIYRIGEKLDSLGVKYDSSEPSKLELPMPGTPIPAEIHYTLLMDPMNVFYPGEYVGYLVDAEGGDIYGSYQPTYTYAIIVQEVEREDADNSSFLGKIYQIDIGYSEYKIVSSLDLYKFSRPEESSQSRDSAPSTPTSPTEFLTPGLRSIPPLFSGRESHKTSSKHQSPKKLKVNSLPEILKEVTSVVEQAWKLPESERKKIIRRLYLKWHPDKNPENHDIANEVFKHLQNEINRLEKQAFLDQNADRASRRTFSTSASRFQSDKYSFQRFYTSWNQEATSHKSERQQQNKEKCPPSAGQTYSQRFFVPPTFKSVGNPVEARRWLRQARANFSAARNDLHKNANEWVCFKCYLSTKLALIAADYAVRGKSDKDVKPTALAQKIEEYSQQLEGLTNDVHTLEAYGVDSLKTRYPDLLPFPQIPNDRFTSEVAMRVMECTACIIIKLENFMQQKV"},
  "source": "the supplement of paper PMC12067093",
  "about": "“Discovery and optimisation of a covalent ligand for TRIM25 and its application to targeted protein ubiquitination” (Chemical Science, 2025)",
  "note": "Some of the results follow.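 Note: competitive chemoproteomic profiling in live THP-1 cells with an iodoacetamide desthiobiotin (IA-DTB) probe, comparing probe-labelled peptide intensities in compound-treated cells against DMSO-treated controls.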",
  "data": [
    {"compound": "CC1Cc2ccccc2N1C(=O)C1CCCN(C1)C(=O)CCl (mixture of isomers) [TRIM25 ligand 11 (diastereomer mixture)]", "experiment": "probe-labelled cysteine peptide fold change vs DMSO (competition) (log2 fold change); higher = less target engagement (more negative = stronger competition)", "details": "10 µM; THP-1; incubation time: 4 h", "values": [
      {"target": "RRN3_Q9NYV6_329_DVCYVDGK (UniProt Q9NYV6)", "probe-labelled cysteine peptide fold change": -0.198},
      {"target": "RPRD1B_Q9NQG5_100_EADEGCK (UniProt Q9NQG5)", "probe-labelled cysteine peptide fold change": -0.0863},
      {"target": "RPTOR_Q8N122_1168+1174_VQDIPTGADSCVTSLSCDSHR (UniProt Q8N122)", "probe-labelled cysteine peptide fold change": 0.0692},
      {"target": "SAMD9L_Q8IVG5_1085_RFPQNAFICQALAR (UniProt Q8IVG5)", "probe-labelled cysteine peptide fold change": -0.0374},
      {"target": "RPS5_P46782_66_KAQCPIVER (UniProt P46782)", "probe-labelled cysteine peptide fold change": 0.0344},
      {"target": "RPS14_P62263_31_EKKEEQVISLGPQVAEGENVFGVCHIFASFNDTFVHVTDLSGK (UniProt P62263)", "probe-labelled cysteine peptide fold change": -0.151},
      {"target": "RTCB_Q9Y3I0_485_NVTDVVNTCHDAGISKK (UniProt Q9Y3I0)", "probe-labelled cysteine peptide fold change": -0.0425},
      {"target": "SAE1_Q9UBE0_130+134_KPESFFTQFDAVCLTCCSR (UniProt Q9UBE0)", "probe-labelled cysteine peptide fold change": 0.16},
      {"target": "RRP8_O43159_332_NPVHCFDLASLDPR (UniProt O43159)", "probe-labelled cysteine peptide fold change": 0.204},
      {"target": "RTRAF_Q9Y224_19_LTALDYHNPAGFNCK (UniProt Q9Y224)", "probe-labelled cysteine peptide fold change": 0.414},
      {"target": "RYBP_Q8N488_44_CSICDVR (UniProt Q8N488)", "probe-labelled cysteine peptide fold change": 0.117},
      {"target": "RPS6KB1_P23443_254_ESIHDGTVTHTFCGTIEYMAPEILMR (UniProt P23443)", "probe-labelled cysteine peptide fold change": 0.0349},
      {"target": "RPS12_P25398_50_RQAHLCVLASNCDEPMYVK (UniProt P25398)", "probe-labelled cysteine peptide fold change": -0.234},
      {"target": "RTCA_O00442_28_VSTALSCLLGLPLR (UniProt O00442)", "probe-labelled cysteine peptide fold change": -0.0917},
      {"target": "S100A6_P06703_3_ACPLDQAIGLLVAIFHK (UniProt P06703)", "probe-labelled cysteine peptide fold change": -0.394},
      {"target": "RPS11_P62280_131_DVQIGDIVTVGECR (UniProt P62280)", "probe-labelled cysteine peptide fold change": 0.0856},
      {"target": "RTCB_Q9Y3I0_193_EHCEEYGR (UniProt Q9Y3I0)", "probe-labelled cysteine peptide fold change": -0.0531},
      {"target": "RUFY1_Q96T51_692_VCDSCHTLLLQR (UniProt Q96T51)", "probe-labelled cysteine peptide fold change": 0.114},
      {"target": "RPS20_P60866_70_KTPCGEGSK (UniProt P60866)", "probe-labelled cysteine peptide fold change": 0.0322},
      {"target": "RRP12_Q5JTH9_261_AAQHGVCSVLK (UniProt Q5JTH9)", "probe-labelled cysteine peptide fold change": 0.068},
      {"target": "RTFDC1_Q9BY42_3_GCDGGTIPK (UniProt Q9BY42)", "probe-labelled cysteine peptide fold change": -0.0238},
      {"target": "RREB1_Q92766-2_1302_HGVTTCSLR (UniProt Q92766)", "probe-labelled cysteine peptide fold change": 0.0201},
      {"target": "RTN3_O95197-3_46_SCSSSCAVHDLIFWR (UniProt O95197)", "probe-labelled cysteine peptide fold change": -0.00795},
      {"target": "RUVBL2_Q9Y230_413_YAIQLITAASLVCR (UniProt Q9Y230)", "probe-labelled cysteine peptide fold change": -0.126},
      {"target": "RPS6KB1_P23443_90_IRPECFELLR (UniProt P23443)", "probe-labelled cysteine peptide fold change": -0.0333},
      {"target": "RUNX3_Q13761_22_RFTPPSPAFPCGGGGGK (UniProt Q13761)", "probe-labelled cysteine peptide fold change": 0.0129},
      {"target": "RPS15A_P62244_72_CGVISPR (UniProt P62244)", "probe-labelled cysteine peptide fold change": -0.044},
      {"target": "SAAL1_Q96ER3_248_LVPCILEAAK (UniProt Q96ER3)", "probe-labelled cysteine peptide fold change": -0.184},
      {"target": "RPS15A_P62244_30_QVLIRPCSK (UniProt P62244)", "probe-labelled cysteine peptide fold change": 0.0505},
      {"target": "RPS6KA5_O75582_731_YKREGFCLQNVDKAPLAK (UniProt O75582)", "probe-labelled cysteine peptide fold change": -0.174},
      {"target": "RPUSD2_Q8IZ73_344_GKPCETVFQR (UniProt Q8IZ73)", "probe-labelled cysteine peptide fold change": 0.00255},
      {"target": "S100A4_P26447_3_ACPLEK (UniProt P26447)", "probe-labelled cysteine peptide fold change": -0.23},
      {"target": "SACS_Q9NZJ4_1160_WVPACK (UniProt Q9NZJ4)", "probe-labelled cysteine peptide fold change": -0.0572},
      {"target": "SACS_Q9NZJ4_1846_LGLVPCGAVGVQLSEIQDQK (UniProt Q9NZJ4)", "probe-labelled cysteine peptide fold change": -0.0692},
      {"target": "RRBP1_Q9P2E9_1128_LREAEETQSTLQAECDQYR (UniProt Q9P2E9)", "probe-labelled cysteine peptide fold change": 0.000758},
      {"target": "RPS12_P25398_92_LGEWVGLCK (UniProt P25398)", "probe-labelled cysteine peptide fold change": -0.0631},
      {"target": "RPP38_P78345_176_CVLALAFKK (UniProt P78345)", "probe-labelled cysteine peptide fold change": -0.368},
      {"target": "SAC3D1_A6NKF1_340_DLCQAHGLPLDGEER (UniProt A6NKF1)", "probe-labelled cysteine peptide fold change": 0.0214},
      {"target": "RREB1_Q92766_291_DAMGRPFIQNNPSIPAGFHDLGFTDFSCR (UniProt Q92766)", "probe-labelled cysteine peptide fold change": -0.104}
    ]}
  ]
}
